Here are results for four molecules from article PMC6317315.

Amino acid sequences for entries named in this document (tags omitted). A change or cut given only in a name is not applied to a line headed by its entry.
UniProt Q23096: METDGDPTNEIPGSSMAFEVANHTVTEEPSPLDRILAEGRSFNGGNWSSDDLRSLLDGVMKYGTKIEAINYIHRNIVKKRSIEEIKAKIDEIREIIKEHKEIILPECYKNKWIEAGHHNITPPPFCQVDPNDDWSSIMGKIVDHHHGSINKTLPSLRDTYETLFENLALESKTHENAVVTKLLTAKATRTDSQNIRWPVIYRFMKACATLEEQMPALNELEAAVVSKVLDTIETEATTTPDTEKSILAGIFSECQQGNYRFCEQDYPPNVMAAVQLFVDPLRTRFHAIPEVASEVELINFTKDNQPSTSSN
UniProt O01819: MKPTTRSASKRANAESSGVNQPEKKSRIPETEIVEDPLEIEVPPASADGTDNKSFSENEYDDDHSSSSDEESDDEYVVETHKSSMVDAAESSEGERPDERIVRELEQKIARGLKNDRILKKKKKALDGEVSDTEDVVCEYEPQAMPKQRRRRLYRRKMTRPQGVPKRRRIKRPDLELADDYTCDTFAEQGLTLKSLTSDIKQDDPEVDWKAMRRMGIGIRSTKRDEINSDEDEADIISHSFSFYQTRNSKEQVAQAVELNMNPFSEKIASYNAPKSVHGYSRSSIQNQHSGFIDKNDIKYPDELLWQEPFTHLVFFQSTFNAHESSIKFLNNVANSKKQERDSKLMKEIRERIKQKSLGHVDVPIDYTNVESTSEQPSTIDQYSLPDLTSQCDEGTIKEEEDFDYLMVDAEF

Where two headings read alike, the source gives them in different places. These are yes or no findings as the source states them, for the method shown. In cells and extracts the contact can be indirect. A yes stands for co-enrichment or nearness to the bait. Other partners may have been found. For some assays here: A no says only that the protein was not detected with the bait.

Test [1] addresses T1, piRNA silencing-defective 1 (PRDE-1) (C. elegans (endogenous in N2 animals)) (UniProt O17828).
T1 sequence: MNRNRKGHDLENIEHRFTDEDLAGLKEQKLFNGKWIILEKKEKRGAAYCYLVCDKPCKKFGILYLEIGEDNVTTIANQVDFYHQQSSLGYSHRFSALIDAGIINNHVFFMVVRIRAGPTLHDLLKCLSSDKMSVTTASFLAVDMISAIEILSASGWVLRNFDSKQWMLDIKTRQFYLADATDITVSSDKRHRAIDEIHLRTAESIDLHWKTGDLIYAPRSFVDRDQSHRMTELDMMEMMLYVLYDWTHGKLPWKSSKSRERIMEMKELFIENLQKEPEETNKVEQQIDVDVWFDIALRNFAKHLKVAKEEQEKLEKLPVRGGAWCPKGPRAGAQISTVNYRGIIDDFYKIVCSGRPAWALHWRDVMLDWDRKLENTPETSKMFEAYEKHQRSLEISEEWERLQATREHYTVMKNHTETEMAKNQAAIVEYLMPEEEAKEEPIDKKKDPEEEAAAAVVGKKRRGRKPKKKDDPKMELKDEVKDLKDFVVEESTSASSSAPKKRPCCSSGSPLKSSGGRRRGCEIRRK
Description: affinity purification with mass spectrometry; anti-PRDE-1 antibody KSOJ coupled to Dynabeads, nuclear extracts of young adult N2 animals in PBSCM buffer, overnight at 4°C, eight washes; controls: prde-1(mj207) mutant and uncoupled IgG beads.

Test [2] has as its target T1, piRNA silencing-defective 1 (PRDE-1) (C. elegans (endogenous in N2 animals)). Described as above. The source holds these as a separate data set.
Test [3] deals with TOFU-5::GFP::3xFlag (C. elegans). Description: affinity purification with mass spectrometry; anti-GFP beads, lysate of nonsynchronized animals expressing TOFU-5::GFP, lysis buffer with 150 mM NaCl (2x: 300 mM) and Triton X-100, 1 h at 4°C, three washes.

Turning to “twenty-one-U fouled-up 5 (TOFU-5) (from UniProt Q23096)”, the binding entry in test [1] is “binds”.

As to “twenty-one-U fouled-up 4 (TOFU-4) (from UniProt O01819)”, the binding result in test [1] was “binds”.

B1: TATA-box-binding protein 1 (TBP-1) (protein, UniProt P32085 1-340)
chain: MNLNSPAVSMLGGDTPAHGGPNSVLGGQGPSSILTGHGPNSVMGPNSILGPGSVLNPQSIQPMQSQQMHSLQGSSMQMHSHLANSNLNLNINPASVGPDRNPGSVMHHNLDINPPSVAYQNLTVPMTPLAYSVYDRDALTHQAPASNIAATMVPATPASQLDIPMPALQNIVSTVNLGVQLDLKKIALHARNAEYNPKRFAAVIMRIREPRTTALIFSSGKMVCTGAKSEEASRLAARKYARIVQKLGFQAKFTEFMVQNMVGSCDVRFPIQLEGLCITHSQFSTYEPELFPGLIYRMVKPRVVLLIFVSGKVVITGAKTKRDIDEAFGQIYPILKGFKK
As to B1, the binding result in test [2] is given as “binds”.

B2: UNC-130 (protein, UniProt Q18694 1-333)
chain: MLFSMESILSSTKPKLEPPPKLEPEVTINEQVVDLPRSNTRLSEPSTSASVLEHDLKFGESRKRSRSLGDEPTEDEDGVPVRKANKRNHSTSSAADSSSDDAKDDDDDDDSTSRKSMSGHRKSSHAKPPYSYIALIAMSILNSPEKKLTLSEICEFIINKFEYYKEKFPAWQNSIRHNLSLNDCFVKVARGPGNPGKGNYWALDPNCEDMFDNGSFLRRRKRYKKNSDTYHEMMSHHPMPFPPFLPQGMPFPPRMMHPMANIPMLGHPMNPRAVPNMPAFFIPQNIDSQKLLSMMASRIMPMDAPVSSGQKRTSSSSSPNENGSSAVSDKLSA
As for B2, the binding entry in test [3] and in test [2] was “no binding” throughout.
